Measurements as given in article PMC5063806, “Data for peptide-binding assay with oriented immobilization of GRP78 in Biacore” (Data in Brief, 2016).
Results are given in words; binding and its absence hold for the method and conditions named. Some binding calls cover weakened binding; strength is not graded here.

By UniProt entry, the sequences of proteins in these tests, tags left out. Residues count along the entry.
UniProt P11021, residues 19-654: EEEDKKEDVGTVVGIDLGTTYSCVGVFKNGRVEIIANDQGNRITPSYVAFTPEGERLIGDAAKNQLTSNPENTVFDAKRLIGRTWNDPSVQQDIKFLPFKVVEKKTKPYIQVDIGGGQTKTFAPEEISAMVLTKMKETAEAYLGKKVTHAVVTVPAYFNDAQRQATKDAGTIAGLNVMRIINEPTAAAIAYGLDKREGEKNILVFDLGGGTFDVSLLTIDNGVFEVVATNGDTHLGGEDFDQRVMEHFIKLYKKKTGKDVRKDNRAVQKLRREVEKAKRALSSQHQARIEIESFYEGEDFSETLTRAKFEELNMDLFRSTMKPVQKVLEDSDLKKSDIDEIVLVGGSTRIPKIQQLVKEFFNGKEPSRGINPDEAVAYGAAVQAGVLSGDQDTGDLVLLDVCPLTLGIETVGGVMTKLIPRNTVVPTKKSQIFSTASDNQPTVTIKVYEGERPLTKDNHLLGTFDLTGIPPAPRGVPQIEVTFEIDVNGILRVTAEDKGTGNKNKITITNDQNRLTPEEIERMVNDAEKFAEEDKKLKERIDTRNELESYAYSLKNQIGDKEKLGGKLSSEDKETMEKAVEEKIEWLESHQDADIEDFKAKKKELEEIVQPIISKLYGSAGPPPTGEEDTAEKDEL

Biological target: T1, human GRP78, N-His-tagged (human, UniProt P11021 19-654)
T1 construct: GRP78, human; 6-His tag at the N-terminus; also called N-His-tagged GRP78; not shown: His6, N-terminal, kept
Experiment: SPR; modified protocol, Biacore X: N-His-tagged GRP78 covalently immobilised (EDC/NHS, Ni2+ orientation, about 5000~6000 RU) on chip NTA; running buffer HBS-P pH 7.4 with 1 mM glycine; L-peptide 6.25-100 uM; both peptides at 50 uM in Fig. 3; fit with BIAevaluation 4.1, default settings; both purified

Binder: WIFPWIQL [WIFPWIQL (W) peptide]
- binding: binds
